Consider 3 molecules from publication doi:10.1101/2024.04.22.590536 (bioRxiv, 2024).

The chains behind the UniProt entries cited, without tags or fusion partners.
UniProt P20436: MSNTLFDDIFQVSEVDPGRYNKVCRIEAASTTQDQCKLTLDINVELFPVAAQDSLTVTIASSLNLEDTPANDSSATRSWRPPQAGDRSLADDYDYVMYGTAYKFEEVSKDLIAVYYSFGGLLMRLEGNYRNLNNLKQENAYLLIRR

The target of one assay is Rpb8-TAP (S. cerevisiae) (UniProt P20436). Put plainly: tandem affinity purification.
The next assay concerns the target T1, Noc4-TAP (S. cerevisiae) (UniProt Q06512).
T1 sequence: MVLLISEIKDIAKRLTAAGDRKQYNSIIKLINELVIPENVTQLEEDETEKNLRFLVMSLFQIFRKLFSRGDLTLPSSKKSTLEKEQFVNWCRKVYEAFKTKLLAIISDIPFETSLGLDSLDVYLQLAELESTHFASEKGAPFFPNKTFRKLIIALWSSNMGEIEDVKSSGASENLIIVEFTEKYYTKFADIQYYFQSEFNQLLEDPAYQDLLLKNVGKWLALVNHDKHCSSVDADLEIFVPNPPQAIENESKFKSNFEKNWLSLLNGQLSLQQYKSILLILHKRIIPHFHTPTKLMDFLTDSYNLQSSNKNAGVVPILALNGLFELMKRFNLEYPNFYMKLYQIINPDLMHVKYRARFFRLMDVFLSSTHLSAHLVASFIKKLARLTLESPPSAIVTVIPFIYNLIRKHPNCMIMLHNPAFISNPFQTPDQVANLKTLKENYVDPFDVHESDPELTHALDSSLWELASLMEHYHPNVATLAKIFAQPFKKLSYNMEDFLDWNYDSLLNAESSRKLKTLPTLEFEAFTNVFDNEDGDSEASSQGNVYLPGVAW
Briefly: tandem affinity purification.

Another assay concerns the target T2, Nop7-TAP (S. cerevisiae) (UniProt P53261).
T2 sequence: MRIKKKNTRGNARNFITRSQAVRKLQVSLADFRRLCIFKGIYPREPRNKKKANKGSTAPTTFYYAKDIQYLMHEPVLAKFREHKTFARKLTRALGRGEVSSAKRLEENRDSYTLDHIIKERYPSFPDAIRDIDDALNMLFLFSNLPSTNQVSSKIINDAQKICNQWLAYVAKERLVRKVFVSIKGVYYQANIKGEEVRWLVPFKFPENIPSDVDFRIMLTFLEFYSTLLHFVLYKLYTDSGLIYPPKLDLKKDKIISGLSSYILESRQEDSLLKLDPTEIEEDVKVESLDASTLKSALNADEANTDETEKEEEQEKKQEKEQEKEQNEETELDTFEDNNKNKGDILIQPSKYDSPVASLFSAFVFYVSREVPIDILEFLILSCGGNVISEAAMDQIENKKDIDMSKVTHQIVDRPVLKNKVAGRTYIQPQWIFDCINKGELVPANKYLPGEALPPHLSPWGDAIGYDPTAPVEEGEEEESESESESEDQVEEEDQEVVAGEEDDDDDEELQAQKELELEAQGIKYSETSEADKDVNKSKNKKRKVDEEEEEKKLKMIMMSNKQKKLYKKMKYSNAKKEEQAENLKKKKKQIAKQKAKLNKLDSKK
Briefly: tandem affinity purification.

For another assay, the target named is T3, Rrp7-Vn (S. cerevisiae) (UniProt P25368).
T3 sequence: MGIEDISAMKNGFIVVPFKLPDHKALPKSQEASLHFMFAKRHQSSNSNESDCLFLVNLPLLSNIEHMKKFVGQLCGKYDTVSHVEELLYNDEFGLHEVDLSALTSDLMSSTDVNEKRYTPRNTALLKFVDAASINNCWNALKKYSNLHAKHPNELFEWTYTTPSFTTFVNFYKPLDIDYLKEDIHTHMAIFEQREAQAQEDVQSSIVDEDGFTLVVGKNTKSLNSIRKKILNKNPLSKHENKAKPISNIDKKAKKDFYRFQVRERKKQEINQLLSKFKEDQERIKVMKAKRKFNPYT
Briefly: split reporter.

The target of assay [1] is T4, Ckb2 fused to the GAL4 DNA binding domain (S. cerevisiae) (UniProt P38930).
T4 sequence: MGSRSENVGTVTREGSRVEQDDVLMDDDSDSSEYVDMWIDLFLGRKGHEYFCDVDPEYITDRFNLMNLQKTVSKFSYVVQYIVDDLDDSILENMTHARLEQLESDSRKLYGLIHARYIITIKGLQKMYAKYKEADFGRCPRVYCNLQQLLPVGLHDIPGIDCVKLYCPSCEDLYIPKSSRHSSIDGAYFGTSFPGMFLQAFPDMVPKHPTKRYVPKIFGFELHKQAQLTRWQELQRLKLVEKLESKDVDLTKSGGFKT
Briefly: two-hybrid.

The target in assay [2] is T5, Ifh1 fused to the GAL4 DNA binding domain (S. cerevisiae) (UniProt P39520).
T5 sequence: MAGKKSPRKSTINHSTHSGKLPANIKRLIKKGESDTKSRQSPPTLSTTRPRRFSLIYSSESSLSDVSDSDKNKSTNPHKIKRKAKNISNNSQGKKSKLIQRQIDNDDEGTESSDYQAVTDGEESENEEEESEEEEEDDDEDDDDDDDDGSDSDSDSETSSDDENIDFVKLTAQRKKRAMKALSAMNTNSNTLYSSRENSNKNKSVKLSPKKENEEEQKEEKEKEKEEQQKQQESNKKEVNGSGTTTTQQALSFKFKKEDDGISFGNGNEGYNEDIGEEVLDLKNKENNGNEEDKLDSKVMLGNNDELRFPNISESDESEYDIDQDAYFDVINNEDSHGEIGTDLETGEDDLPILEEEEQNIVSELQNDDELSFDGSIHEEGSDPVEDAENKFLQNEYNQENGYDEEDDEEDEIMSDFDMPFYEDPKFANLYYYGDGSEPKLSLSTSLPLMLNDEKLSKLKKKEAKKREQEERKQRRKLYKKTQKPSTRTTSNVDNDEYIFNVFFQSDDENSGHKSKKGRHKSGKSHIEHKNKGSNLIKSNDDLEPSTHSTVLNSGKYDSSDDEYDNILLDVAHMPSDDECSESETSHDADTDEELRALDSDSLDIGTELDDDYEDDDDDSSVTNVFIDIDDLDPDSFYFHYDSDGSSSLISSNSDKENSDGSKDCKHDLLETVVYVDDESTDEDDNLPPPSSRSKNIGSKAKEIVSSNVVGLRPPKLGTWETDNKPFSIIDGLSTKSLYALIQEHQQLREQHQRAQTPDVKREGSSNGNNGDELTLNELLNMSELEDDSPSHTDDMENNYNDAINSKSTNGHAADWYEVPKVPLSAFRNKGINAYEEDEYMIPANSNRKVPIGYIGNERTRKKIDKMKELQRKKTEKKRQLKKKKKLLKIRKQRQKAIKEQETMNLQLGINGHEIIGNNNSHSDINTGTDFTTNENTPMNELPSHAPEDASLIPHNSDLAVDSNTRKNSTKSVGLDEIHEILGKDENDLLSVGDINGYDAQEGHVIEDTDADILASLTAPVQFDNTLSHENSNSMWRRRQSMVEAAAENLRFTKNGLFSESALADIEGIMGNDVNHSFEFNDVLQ
Briefly: two-hybrid.

Assay [3] deals with T6, Utp22 fused to the GAL4 DNA binding domain (S. cerevisiae) (UniProt P53254).
T6 sequence: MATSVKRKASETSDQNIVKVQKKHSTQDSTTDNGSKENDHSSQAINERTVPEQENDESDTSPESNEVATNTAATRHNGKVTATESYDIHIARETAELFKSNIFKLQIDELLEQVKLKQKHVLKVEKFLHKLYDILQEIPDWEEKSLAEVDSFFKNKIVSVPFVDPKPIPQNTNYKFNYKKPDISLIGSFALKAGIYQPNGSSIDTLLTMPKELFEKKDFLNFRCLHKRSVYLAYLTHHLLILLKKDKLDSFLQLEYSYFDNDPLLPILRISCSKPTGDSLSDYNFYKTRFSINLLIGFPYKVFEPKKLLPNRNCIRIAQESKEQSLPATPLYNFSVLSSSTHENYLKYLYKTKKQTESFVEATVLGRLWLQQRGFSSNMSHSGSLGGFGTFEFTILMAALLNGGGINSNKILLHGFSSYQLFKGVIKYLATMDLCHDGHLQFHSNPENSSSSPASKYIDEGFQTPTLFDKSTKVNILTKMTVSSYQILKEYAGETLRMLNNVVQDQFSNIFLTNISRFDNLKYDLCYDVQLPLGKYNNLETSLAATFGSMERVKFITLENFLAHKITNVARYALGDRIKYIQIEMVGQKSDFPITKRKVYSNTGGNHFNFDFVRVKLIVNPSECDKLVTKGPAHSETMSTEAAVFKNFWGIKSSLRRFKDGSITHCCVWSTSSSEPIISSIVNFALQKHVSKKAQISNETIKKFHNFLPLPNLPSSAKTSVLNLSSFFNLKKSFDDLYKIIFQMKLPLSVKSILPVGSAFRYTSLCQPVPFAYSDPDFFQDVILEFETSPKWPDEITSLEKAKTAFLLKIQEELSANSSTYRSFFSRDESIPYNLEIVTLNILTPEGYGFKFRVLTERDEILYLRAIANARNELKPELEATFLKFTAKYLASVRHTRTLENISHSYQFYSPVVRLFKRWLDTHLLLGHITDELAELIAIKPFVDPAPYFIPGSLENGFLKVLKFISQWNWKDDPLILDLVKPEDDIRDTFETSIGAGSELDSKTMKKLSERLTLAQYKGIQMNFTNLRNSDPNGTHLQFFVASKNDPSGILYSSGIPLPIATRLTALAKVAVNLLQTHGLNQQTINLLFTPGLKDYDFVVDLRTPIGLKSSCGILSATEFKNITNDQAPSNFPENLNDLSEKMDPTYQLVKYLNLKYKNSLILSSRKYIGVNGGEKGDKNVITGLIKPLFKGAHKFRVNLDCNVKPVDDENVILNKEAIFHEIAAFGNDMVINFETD
Briefly: two-hybrid.

Assay [4] concerns the target T7, Rrp7 fused to the GAL4 DNA binding domain (S. cerevisiae) (UniProt P25368).
T7 sequence: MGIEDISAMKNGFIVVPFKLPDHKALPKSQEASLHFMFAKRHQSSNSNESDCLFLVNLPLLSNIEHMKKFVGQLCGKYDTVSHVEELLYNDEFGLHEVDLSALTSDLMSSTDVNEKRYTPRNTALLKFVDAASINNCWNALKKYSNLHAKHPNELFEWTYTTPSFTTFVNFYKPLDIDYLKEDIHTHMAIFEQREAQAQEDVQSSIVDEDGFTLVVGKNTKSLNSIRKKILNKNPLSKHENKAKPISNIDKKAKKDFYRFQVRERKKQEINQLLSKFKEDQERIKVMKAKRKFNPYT
Briefly: two-hybrid.

These are yes or no findings as the source states them, for the method shown. For some assays here: Binding seen in cells or lysates may run through a third protein. Some entries that bind do so weakly or less than the wild type. For some assays here: Sequences can lack the tags named with a protein.

B1: untagged, endogenous Stm1 (protein, UniProt P39015 1-273)
chain: MSNPFDLLGNDVEDADVVVLPPKEIVKSNTSSKKADVPPPSADPSKARKNRPRPSGNEGAIRDKTAGRRNNRSKDVTDSATTKKSNTRRATDRHSRTGKTDTKKKVNQGWGDDKKELSAEKEAQADAAAEIAEDAAEAEDAGKPKTAQLSLQDYLNQQANNQFNKVPEAKKVELDAERIETAEKEAYVPATKVKNVKSKQLKTKEYLEFDATFVESNTRKNFGDRNNNSRNNFNNRRGGRGARKGNNTANATNSANTVQKNRNIDVSNLPSLA
For the molecule B1, the binding entry is on record as “no binding” with Rpb8-TAP (S. cerevisiae), “binds” with Noc4-TAP (S. cerevisiae) and “binds” with Nop7-TAP (S. cerevisiae).

B2: Vc-Stm1 (protein, UniProt P39015 1-273)
chain: MSNPFDLLGNDVEDADVVVLPPKEIVKSNTSSKKADVPPPSADPSKARKNRPRPSGNEGAIRDKTAGRRNNRSKDVTDSATTKKSNTRRATDRHSRTGKTDTKKKVNQGWGDDKKELSAEKEAQADAAAEIAEDAAEAEDAGKPKTAQLSLQDYLNQQANNQFNKVPEAKKVELDAERIETAEKEAYVPATKVKNVKSKQLKTKEYLEFDATFVESNTRKNFGDRNNNSRNNFNNRRGGRGARKGNNTANATNSANTVQKNRNIDVSNLPSLA
For the molecule B2, the binding entry in the assay with Rrp7-Vn (S. cerevisiae) is “binds”.

B3: Stm1Δ176-225 fused to the GAL4 activation domain (protein, UniProt P39015)
chain: MSNPFDLLGNDVEDADVVVLPPKEIVKSNTSSKKADVPPPSADPSKARKNRPRPSGNEGAIRDKTAGRRNNRSKDVTDSATTKKSNTRRATDRHSRTGKTDTKKKVNQGWGDDKKELSAEKEAQADAAAEIAEDAAEAEDAGKPKTAQLSLQDYLNQQANNQFNKVPEAKKVELDNNNSRNNFNNRRGGRGARKGNNTANATNSANTVQKNRNIDVSNLPSLA
As to B3, the binding entry in assay [1], in assay [2], in assay [3] and in assay [4] was “binds” each time.
